Here are results for 3 molecules from PMC8657445.

The target of assay [1] is T1, AtPII-GFP (Arabidopsis thaliana) (UniProt Q9ZST4).
T1 sequence: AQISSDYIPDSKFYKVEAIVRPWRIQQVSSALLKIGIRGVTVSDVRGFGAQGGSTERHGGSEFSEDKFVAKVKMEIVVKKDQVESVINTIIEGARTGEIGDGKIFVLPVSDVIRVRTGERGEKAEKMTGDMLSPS
Put plainly: FRET or BRET; FRET/FLIM: GFP donor lifetime of co-localising GFP and mCherry signals against AtPII-GFP alone; 2in1 pFRET vectors under p35S; transiently transformed N. benthamiana leaf disks, plastids in the epidermis. A general note: Bioluminescence resonance energy transfer reports proximity on the nanometre scale.

For assay [2], the target named is AtPII_(ΔCT15)-GFP (Arabidopsis thaliana). Kind of assay: co-IP; GFP-tagged proteins isolated with GFP traps from protein extracts of co-infiltrated tobacco leaves; co-eluted mCherry-tagged proteins detected by Western blot with an anti-RFP antibody. On the technique in general: A western blot detects proteins with antibodies after separation by electrophoresis.

Results are given in words; binding and its absence hold for the method and conditions named. Binding seen in cells or lysates may run through a third protein. A result given as binding can be weak or reduced; the word gives no strength. For part of these data: Where a sequence is shown, tags or fusion partners need not be part of it.

Consider “AtDXR-mCherry (Arabidopsis thaliana) (enzyme)”, for which the binding result in assay [1] was “binds”.

B1: AtPII-mCherry (protein, UniProt Q9ZST4 62-196)
chain: T1 sequence
For B1, in assay [2], the binding entry is “binds”.

B2: AtNAGK-mCherry (enzyme, UniProt Q9SCL7 51-347)
chain: TVSTPPSIATGNAPSPDYRVEILSESLPFIQKFRGKTIVVKYGGAAMTSPELKSSVVSDLVLLACVGLRPILVHGGGPDINRYLKQLNIPAEFRDGLRVTDATTMEIVSMVLVGKVNKNLVSLINAAGATAVGLSGHDGRLLTARPVPNSAQLGFVGEVARVDPSVLRPLVDYGYIPVIASVAADDSGQAYNINADTVAGELAAALGAEKLILLTDVAGILENKEDPSSLIKEIDIKGVKKMIEDGKVAGGMIPKVKCCIRSLAQGVKTASIIDGRRQHSLLHEIMSDEGAGTMITG
Take B2: the binding result in assay [2] was “binds”.
